Measured values from PMC10709007, “GPR162 is a beta cell CART receptor” (iScience, 2023).
These are yes or no findings as the source states them, for the method shown. A result given as binding can be weak or reduced; the word gives no strength. For some of these results: In cells and extracts the contact can be indirect. Values belong to the molecule of their own block, whether it stands above or below them.

Experiments:
rat CARTp55-102 (rat) = target: T1, rat CARTp55-102 (rat) (UniProt P49192); test: co-IP; INS-1 832/13 cell lysates incubated with 10^-7 M CARTp55-102 for 30 min at 4°C, cross-linked with 1 mM BS3 for 30 min at room temperature, precipitated with biotin-labelled CART antibody on streptavidin Dynabeads; blot for GPR162; controls without peptide and without antibody; only the target purified
T1 sequence (peptide): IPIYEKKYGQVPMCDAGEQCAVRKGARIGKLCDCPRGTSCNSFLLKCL

[1] = target: GPR162 (rat (endogenous in INS-1 832/13)); test: radioligand binding; INS-1 cells in 24-well plates, control or Gpr162 siRNA; 10–15 'p.m.' (so in the source) 125I-CARTp55-102, 3 h at 4°C, 50 mM HEPES pH 7.4, 1 mM CaCl2, 5 mM MgCl2, 0.5% BSA; non-specific binding with 0.1 μM unlabeled CARTp55-102; binding 25% lower after Gpr162 KD; only the binder purified
[2] = target: GPR162 (rat (endogenous in INS-1 832/13)); test: proximity ligation; INS-1 832/13 cells incubated with 10^-7 M rat CARTp55-102 for 5 min at 37°C, fixed, permeabilised; DuoLink Goat/Rabbit with anti-CART and an anti-receptor antibody; control or Gpr162 siRNA (90% lower CART-GPR162 signal after KD); only the binder purified
[3] = target: GPR162 (rat (endogenous in INS-1 832/13)); test: proximity ligation; INS-1 832/13 cells, fixed and permeabilised; DuoLink Goat/Rabbit with rabbit anti-GNA13 and goat anti-GPR162

B2: rat CARTp55-102 (peptide, UniProt P49192 82-129)
peptide: T1 sequence (peptide)
binding [2]: binds

B3: G protein alpha 13 (protein, UniProt Q6Q7Y5 1-377)
chain: MADFLPSRSVLSVCFPGCVLTNGEAEQQRKSKEIDKCLSREKTYVKRLVKILLLGAGESGKSTFLKQMRIIHGQDFDQRAREEFRPTIYSNVIKGMRVLVDAREKLHIPWGDNKNQVHGDKLMAFDTRAPMAAQGMVETRVFLQYLPAIRALWDDSGIQNAYDRRREFQLGESVKYFLDNLDKLGVPDYIPSQQDILLARRPTKGIHEYDFEIKNVPFKMVDVGGQRSERKRWFECFDSVTSILFLVSSSEFDQVLMEDRLTNRLTESLNIFETIVNNRVFSNVSIILFLNKTDLLEEKVQVVSIKDYFLEFEGDPHCLRDVQKFLVECFRGKRRDQQQRPLYHHFTTAINTENIRLVFRDVKDTILHDNLKQLMLQ
binding [3]: binds

The next lines start with the values.

binding (rat CARTp55-102 (rat)): binds
Molecule: GPR162 (rat (endogenous in INS-1 832/13)) (receptor)

binding [1]: binds
B1: ^125I-CARTp55-102 (peptide, UniProt P49192 82-129)
peptide: T1 sequence (peptide)
modifications: 125I in the meta-position of tyrosine side chains
